Consider one compound from patent US11845782B2, “Relaxin fusion polypeptides and uses thereof” (MedImmune Limited, priority 2017, dated 2023).

Molecules are shown by their SMILES.

The series concerns isoproterenol-induced cardiac hypertrophy. Kind of series: Isoproterenol-induced cardiac hypertrophy and fibrosis in mice (Example 8). It counts as in vivo, C57BL/6J male mice. As to conditions: 15 mg/kg/day by minipump. How it is done:
A total of 6 study groups with n=8 mice (C57BL/6J male mice) per group were performed. The groups were: vehicle, Fc_hRLX2_15-15AA, isoproterenol, isoproterenol+enalapril, isoproterenol+recombinant human relaxin 2, and isoproterenol+Fc_hRLX2_15-15AA. Drugs and vehicle were delivered by Alzet minipumps (model 1002; rate: 0.25 μl/hr (±0.05), 6 μl one day @37° C.) or subcutaneous injection for Fc_hRLX2_15-15AA.
Isoproterenol was made as follows: A 500 mM solution (123.9 mg/ml) freshly in 0.0002% Na-Asc saline, […] filtered). The final [Iso] concentration in minipump: 15 mg/kg/day=15 mg/247.72/6 μl/1000 g=10.1 mM per gram of body weight (BVV). Vehicle was 0.0002% Na-ascorbate, Sigma catalog #A7631.
Enalapril was made as follows: Enalapril is used as maleate salt, MW of 492.52, Sigma catalog #E6888. A 200 mM stock solution (98.5 mg/ml) freshly in methanol, […] filtered. The final concentration in minipump: 2.5 mg/kg/day=2.5 mg/492.52/6 μl/1000 g=0.846 mM per gram of body weight (BVV), i.e., one minipump for 30 gram of mouse will need 19.0 μl of 200 mM Ena (150 μl×0.846/200 mM×30 g BW). […]
At the end of the study, body weight, heart weight, lung weight, and tibia length were measured. […]
Fibrosis was measured based on the detection of hydroxyproline (Total collagen assay, QuickZyme Biosciences). […]

For `CC(C)NCC(O)c1ccc(O)c(O)c1` (centres unmarked) [isoproterenol], the “cardiac hypertrophy (HW/TL) compared to vehicle or Fc_hRLX2_15-15AA alone” value is “significant increase” and the “fibrosis (collagen content) compared to vehicle or Fc_hRLX2_15-15AA alone” value is given as “significant increase”.
